Test results as given in US7960401B2, “Spiropiperidine derivatives for controlling pests” (priority 2003, dated 2011).
Some entries share one result that the patent states for a list of compounds.

Experiments:
Format in all cases: in vivo
Heliothis virescens = Heliothis virescens (Tobacco budworm) egg test on artificial diet; details: 200 ppm by pipetting, eggs (0-24 h old) on artificial diet, 4 days; egg mortality, larval mortality, growth regulation
Aedes aegypti = Aedes aegypti (Yellow fever mosquito) larvae test; details: 2 ppm, L2 larvae in 96-well plates, 2 days; mortality and growth inhibition
Plutella xylostella = Plutella xylostella (Diamond back moth) larvae test on artificial diet; details: 18.2 ppm by pipetting on artificial diet, L2 larvae, 5 days; larval mortality, antifeedant, growth regulation
Spodoptera littoralis = Spodoptera littoralis (Egyptian cotton leafworm) cotton leaf disc spray test; details: 200 ppm sprayed on cotton leaf discs, 5 L1 larvae, 3 DAT; mortality, repellent effect, feeding behaviour, growth regulation

| Compound | control of Heliothis virescens (Heliothis virescens) | control of Aedes aegypti (Aedes aegypti) | control of Plutella xylostella (Plutella xylostella) | control of Spodoptera littoralis (Spodoptera littoralis) |
| --- | --- | --- | --- | --- |
| CC(=O)N1CC2(CCN(C/C=C/c3ccc(Cl)cc3)CC2)c2cccnc21 [CCCI-3] | at least 80% | at least 80% | – | – |
| O=C(c1ccnc(Cl)c1)N1CC2(CCN(C/C=C/c3ccc(Cl)cc3)CC2)c2cc(F)cnc21 [CCCIII-26] | at least 80% | at least 80% | at least 80% | at least 80% |
| O=C(c1ccnc(Cl)c1)N1CC2(CCN(C/C=C/c3ccc(Cl)cc3)CC2)c2ccncc21 [CCIII-3] | at least 80% | at least 80% | at least 80% | – |
| O=C(c1ccnc(Cl)c1)N1CC2(CCN(C/C=C/c3ccc(C(F)(F)F)cc3)CC2)c2ccncc21 [CCIII-6] | at least 80% | at least 80% | – | – |
| O=C(c1ccnc(Cl)c1)N1CC2(CCN(C/C=C/c3ccc(OC(F)(F)F)cc3)CC2)c2ccncc21 [CCIII-7] | at least 80% | at least 80% | – | – |
| O=C(c1ccnc(Cl)c1)N1CC2(CCN(C/C=C/c3ccc(Cl)cc3)CC2)c2cnc(Cl)cc21 [CIII-49] | at least 80% | – | at least 80% | – |
| O=C(c1ccnc(Cl)c1)N1CC2(CCN(C/C=C/c3ccc(OC(F)(F)F)cc3)CC2)c2cnc(Cl)cc21 [CIII-53] | at least 80% | at least 80% | at least 80% | – |
| O=C(c1ccnc(Cl)c1)N1CC2(CCN(C/C=C/c3ccc(Cl)cc3)CC2)c2c1cc(Cl)nc2Cl [CIII-555] | at least 80% | – | at least 80% | – |
| CC(=O)N1CC2(CCN(C/C=C/c3ccc(Cl)cc3)CC2)c2nc(F)ccc21 [Compound I-26] | at least 80% | at least 80% | – | at least 80% |
| CC(=O)N1CC2(CCN(C/C=C/c3ccc(C(F)(F)F)cc3)CC2)c2nc(F)ccc21 [Compound I-29] | at least 80% | – | – | – |
| CC(=O)N1CC2(CCN(C/C=C/c3ccc(OC(F)(F)F)cc3)CC2)c2nc(F)ccc21 [Compound I-30] | at least 80% | – | – | at least 80% |
| CC(=O)N1CC2(CCN(C/C=C/c3ccc(Cl)cc3)CC2)c2ncc(Cl)cc21 [Compound I-210] | at least 80% | at least 80% | – | – |
| CC(=O)N1CC2(CCN(C/C=C/c3ccc(C(F)(F)F)cc3)CC2)c2ncc(Cl)cc21 [Compound I-213] | at least 80% | at least 80% | – | – |
| CC(=O)N1CC2(CCN(C/C=C/c3ccc(OC(F)(F)F)cc3)CC2)c2ncc(Cl)cc21 [Compound I-214] | at least 80% | at least 80% | – | – |
| CC(=O)N1CC2(CCN(C/C=C/c3ccc(Cl)cc3)CC2)c2ncc(F)cc21 [Compound I-233] | at least 80% | at least 80% | – | – |
| CC(=O)N1CC2(CCN(C/C=C/c3ccc(C(F)(F)F)cc3)CC2)c2ncc(F)cc21 [Compound I-236] | – | at least 80% | – | – |
| CC(=O)N1CC2(CCN(C/C=C/c3ccc(OC(F)(F)F)cc3)CC2)c2ncc(F)cc21 [Compound I-237] | at least 80% | at least 80% | – | at least 80% |
| O=C(c1cc(Cl)nc(Cl)c1)N1CC2(CCN(C/C=C/c3ccccc3)CC2)c2ncc(Cl)cc21 [Compound V-209] | at least 80% | – | at least 80% | at least 80% |
| O=C(c1cc(Cl)nc(Cl)c1)N1CC2(CCN(C/C=C/c3ccc(Cl)cc3)CC2)c2ncc(F)cc21 [Compound V-233] | at least 80% | – | at least 80% | at least 80% |
| O=C(c1cc(Cl)nc(Cl)c1)N1CC2(CCN(C/C=C/c3ccc(Cl)cc3)CC2)c2nc(F)c(Cl)cc21 [Compound V-509] | at least 80% | at least 80% | at least 80% | at least 80% |
| O=C(c1ccnc(Cl)c1)N1CC2(CCN(C/C=C/c3ccc(C(F)(F)F)cc3)CC2)c2sc(Cl)cc21 [DCIII-52] | at least 80% | at least 80% | – | – |

| Compound | control of Heliothis virescens (Heliothis virescens) | control of Aedes aegypti (Aedes aegypti) | control of Plutella xylostella (Plutella xylostella) | control of Spodoptera littoralis (Spodoptera littoralis) |
| --- | --- | --- | --- | --- |
| O=C(c1ccnc(Cl)c1)N1CC2(CCN(C/C=C/c3ccc(OC(F)(F)F)cc3)CC2)c2sc(Cl)cc21 [DCIII-53] | – | at least 80% | at least 80% | – |
| O=C(c1ccnc(Cl)c1)N1CC2(CCN(C/C=C/c3ccc(Cl)cc3)CC2)c2cncnc21 [DIII-3] | at least 80% | – | – | – |
| O=C(c1ccnc(Cl)c1)N1CC2(CCN(C/C=C/c3ccc(Cl)cc3)CC2)c2cnc(Cl)nc21 [DIII-210] | at least 80% | – | – | – |
| O=C(c1cc(Cl)nc(Cl)c1)N1CC2(CCN(C/C=C/c3ccc(OC(F)(F)F)cc3)CC2)c2cnc(Cl)nc21 [DV-214] | – | – | at least 80% | – |
| O=C(c1ccncc1)N1CC2(CCN(C/C=C/c3ccc(Cl)cc3)CC2)c2nc(F)ccc21 [II-26] | at least 80% | at least 80% | at least 80% | at least 80% |
| O=C(c1ccncc1)N1CC2(CCN(C/C=C/c3ccc(Cl)cc3)CC2)c2ncc(Cl)cc21 [II-210] | at least 80% | at least 80% | at least 80% | at least 80% |
| O=C(c1ccncc1)N1CC2(CCN(C/C=C/c3ccc(C(F)(F)F)cc3)CC2)c2ncc(Cl)cc21 [II-213] | at least 80% | at least 80% | – | at least 80% |
| O=C(c1ccncc1)N1CC2(CCN(C/C=C/c3ccc(OC(F)(F)F)cc3)CC2)c2ncc(Cl)cc21 [II-214] | at least 80% | at least 80% | at least 80% | at least 80% |
| O=C(c1ccnc(Cl)c1)N1CC2(CCN(C/C=C/c3ccc(C(F)(F)F)cc3)CC2)c2ncccc21 [III-6] | at least 80% | at least 80% | at least 80% | at least 80% |
| O=C(c1ccnc(Cl)c1)N1CC2(CCN(C/C=C/c3ccc(Cl)cc3)CC2)c2nc(F)ccc21 [III-26] | at least 80% | at least 80% | at least 80% | at least 80% |
| O=C(c1ccnc(Cl)c1)N1CC2(CCN(C/C=C/c3ccc(Cl)cc3)CC2)c2ncc(Cl)cc21 [III-210] | at least 80% | at least 80% | at least 80% | at least 80% |
| O=C(c1ccnc(Cl)c1)N1CC2(CCN(C/C=C/c3ccc(OC(F)(F)F)cc3)CC2)c2ncc(Cl)cc21 [III-214] | at least 80% | at least 80% | at least 80% | – |
| O=C(c1ccnc(Cl)c1)N1CC2(CCN(C/C=C/c3ccc(Cl)cc3)CC2)c2ncc(F)cc21 [III-233] | at least 80% | at least 80% | at least 80% | at least 80% |
| Cc1cnc2c(c1)N(C(=O)c1ccnc(Cl)c1)CC21CCN(C/C=C/c2ccc(Cl)cc2)CC1 [III-302] | at least 80% | at least 80% | at least 80% | at least 80% |
| O=C(c1ccnc(Cl)c1)N1CC2(CCN(C/C=C/c3ccc(Cl)cc3)CC2)c2ncc(C(F)(F)F)cc21 [III-325] | at least 80% | at least 80% | at least 80% | at least 80% |
| O=C(c1ccnc(Cl)c1)N1CC2(CCN(C/C=C/c3ccc(C(F)(F)F)cc3)CC2)c2ncc(C(F)(F)F)cc21 [III-328] | at least 80% | at least 80% | at least 80% | at least 80% |
| O=C(c1ccnc(Cl)c1)N1CC2(CCN(C/C=C/c3ccc(OC(F)(F)F)cc3)CC2)c2ncc(C(F)(F)F)cc21 [III-329] | at least 80% | at least 80% | at least 80% | at least 80% |
| O=C(c1ccnc(F)c1)N1CC2(CCN(C/C=C/c3ccc(Cl)cc3)CC2)c2nc(F)ccc21 [VIII-26] | at least 80% | at least 80% | at least 80% | at least 80% |
| O=C(c1ccnc(F)c1)N1CC2(CCN(C/C=C/c3ccc(OC(F)(F)F)cc3)CC2)c2ncc(Cl)cc21 [VIII-214] | at least 80% | at least 80% | at least 80% | – |
| O=C(NCc1cnc(Cl)s1)N1CC2(CCN(CC=Cc3ccc(C(F)(F)F)cc3)CC2)c2ncc(Cl)cc21 [XX-213] | at least 80% | at least 80% | at least 80% | – |
